The target in the assay is SIRT1 (UniProt Q96EB6). Nature of the assay: pull-down; GST pull-down; which partner carried GST is not told; no methods, figure or conditions are given.

The chains behind the UniProt entries cited, without tags or fusion partners.
UniProt Q96EB6: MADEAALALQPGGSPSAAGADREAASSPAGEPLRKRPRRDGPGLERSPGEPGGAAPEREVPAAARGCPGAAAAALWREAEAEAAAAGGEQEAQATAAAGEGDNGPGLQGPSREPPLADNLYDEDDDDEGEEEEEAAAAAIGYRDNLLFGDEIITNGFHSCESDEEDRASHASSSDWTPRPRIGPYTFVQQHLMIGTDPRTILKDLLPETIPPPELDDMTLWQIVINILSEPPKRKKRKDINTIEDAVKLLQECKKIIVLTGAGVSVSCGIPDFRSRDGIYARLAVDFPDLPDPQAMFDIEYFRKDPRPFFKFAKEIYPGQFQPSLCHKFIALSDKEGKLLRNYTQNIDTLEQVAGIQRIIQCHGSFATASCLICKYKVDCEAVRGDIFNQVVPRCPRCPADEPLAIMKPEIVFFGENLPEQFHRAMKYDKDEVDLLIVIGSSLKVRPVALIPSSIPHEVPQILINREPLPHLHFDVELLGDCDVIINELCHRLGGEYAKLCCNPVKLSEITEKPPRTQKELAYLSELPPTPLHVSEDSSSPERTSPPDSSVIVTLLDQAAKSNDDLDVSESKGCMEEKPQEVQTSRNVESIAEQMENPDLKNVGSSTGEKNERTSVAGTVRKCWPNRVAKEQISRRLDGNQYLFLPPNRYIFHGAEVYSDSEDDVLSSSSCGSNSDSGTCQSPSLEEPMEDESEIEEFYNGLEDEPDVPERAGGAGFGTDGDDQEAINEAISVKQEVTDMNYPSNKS
UniProt Q00613: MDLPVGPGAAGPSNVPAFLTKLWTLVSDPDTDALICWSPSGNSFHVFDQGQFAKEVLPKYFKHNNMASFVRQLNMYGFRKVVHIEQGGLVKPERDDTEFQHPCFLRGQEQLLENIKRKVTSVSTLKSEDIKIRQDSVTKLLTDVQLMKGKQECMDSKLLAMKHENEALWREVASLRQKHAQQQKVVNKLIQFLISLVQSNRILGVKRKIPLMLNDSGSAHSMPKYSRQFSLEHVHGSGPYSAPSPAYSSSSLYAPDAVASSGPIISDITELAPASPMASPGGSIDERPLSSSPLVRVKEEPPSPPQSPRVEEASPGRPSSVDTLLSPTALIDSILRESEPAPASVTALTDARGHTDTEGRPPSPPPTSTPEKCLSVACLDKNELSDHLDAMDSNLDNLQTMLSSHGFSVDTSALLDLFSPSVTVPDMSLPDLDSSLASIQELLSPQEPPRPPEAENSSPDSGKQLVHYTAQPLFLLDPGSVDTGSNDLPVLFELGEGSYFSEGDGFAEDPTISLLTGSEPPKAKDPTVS

No constants are given. Whether binding was seen depends on the method and setting. In cells and extracts the contact can be indirect. Some binding calls cover weakened binding; strength is not graded here.

Consider “heat shock transcription factor 1 (HSF1) (from UniProt Q00613 1-529)”, for which the binding result was “binds”.
